The data set can be described thus: general procedure: Boc solid-phase peptide synthesis; p-nitrobenzophenone oxime resin (substitution 0.69 mmol/g or 0.95 mmol/g); HBTU, DIPEA. As to conditions: TFA salt; for final HPLC purity / crude HPLC purity: Analytical HPLC Method 1 (HP 1050, Vydac C18, diode array detector 220 nm).

Consider “2-(1,4,7,10-tetraaza-4,7,10-tris(t-butoxycarbonylmethyl)-1-cyclododecyl)acetyl-Glu(cyclo{Lys-Arg-Gly-Asp-D-Phe})-cyclo{Lys-Arg-Gly-Asp-D-Phe}”, for which the “final HPLC purity” value (conjugation step) is “Purity=99%”. For “Glu(cyclo{Lys-Arg-Gly-Asp-D-Phe})-cyclo{Lys-Arg-Gly-Asp-D-Phe}”, under “late stage modification step”, the “crude HPLC purity” value is given as “Purity=73%” and the step yield is 100%. Take “Cyclo{Arg(Tos)-Gly-Asp(OBzl)-D-Phe-Lys(Cbz)}”: the “crude HPLC purity” value (whole synthesis, scale of the general procedure 0.5 g (or 1 g) of the oxime resin per teabag) is listed as “Purity=89%”. For the substance cyclo{Arg-Gly-Asp-D-Phe-Lys}, for the setting “late stage modification step”, the “final HPLC purity” value is reported as “Purity=100%” and the step yield was 71%. For the substance “Boc-Glu(cyclo{Lys-Arg-Gly-Asp-D-Phe})-cyclo{Lys-Arg-Gly-Asp-D-Phe}”, for the setting “conjugation step”, the “crude HPLC purity” value is given as “Purity=73%” and the conjugation yield came to 44%.

(Values after patent publication US20020122768A1 (priority 2000, published 2002).)
